According to the supplement of paper PMC12067093, “Discovery and optimisation of a covalent ligand for TRIM25 and its application to targeted protein ubiquitination” (Chemical Science, 2025):
The other results are listed elsewhere or left out.

Protein sequences, listed by entry. Tags and fused reporters are not part of them. Lines headed by an entry give the natural chain unless they say otherwise; changes in a name come on top.
UniProt P40938, whole entry, looked up: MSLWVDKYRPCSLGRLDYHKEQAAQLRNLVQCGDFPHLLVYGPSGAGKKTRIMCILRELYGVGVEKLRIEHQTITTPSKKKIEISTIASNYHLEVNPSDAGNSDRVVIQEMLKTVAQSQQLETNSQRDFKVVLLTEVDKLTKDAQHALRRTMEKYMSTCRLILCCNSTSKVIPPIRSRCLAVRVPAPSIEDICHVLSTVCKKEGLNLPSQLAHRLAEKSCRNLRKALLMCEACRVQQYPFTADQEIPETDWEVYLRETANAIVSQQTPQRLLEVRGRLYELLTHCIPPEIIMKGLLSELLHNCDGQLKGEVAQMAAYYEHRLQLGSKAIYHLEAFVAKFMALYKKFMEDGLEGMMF
UniProt O94761: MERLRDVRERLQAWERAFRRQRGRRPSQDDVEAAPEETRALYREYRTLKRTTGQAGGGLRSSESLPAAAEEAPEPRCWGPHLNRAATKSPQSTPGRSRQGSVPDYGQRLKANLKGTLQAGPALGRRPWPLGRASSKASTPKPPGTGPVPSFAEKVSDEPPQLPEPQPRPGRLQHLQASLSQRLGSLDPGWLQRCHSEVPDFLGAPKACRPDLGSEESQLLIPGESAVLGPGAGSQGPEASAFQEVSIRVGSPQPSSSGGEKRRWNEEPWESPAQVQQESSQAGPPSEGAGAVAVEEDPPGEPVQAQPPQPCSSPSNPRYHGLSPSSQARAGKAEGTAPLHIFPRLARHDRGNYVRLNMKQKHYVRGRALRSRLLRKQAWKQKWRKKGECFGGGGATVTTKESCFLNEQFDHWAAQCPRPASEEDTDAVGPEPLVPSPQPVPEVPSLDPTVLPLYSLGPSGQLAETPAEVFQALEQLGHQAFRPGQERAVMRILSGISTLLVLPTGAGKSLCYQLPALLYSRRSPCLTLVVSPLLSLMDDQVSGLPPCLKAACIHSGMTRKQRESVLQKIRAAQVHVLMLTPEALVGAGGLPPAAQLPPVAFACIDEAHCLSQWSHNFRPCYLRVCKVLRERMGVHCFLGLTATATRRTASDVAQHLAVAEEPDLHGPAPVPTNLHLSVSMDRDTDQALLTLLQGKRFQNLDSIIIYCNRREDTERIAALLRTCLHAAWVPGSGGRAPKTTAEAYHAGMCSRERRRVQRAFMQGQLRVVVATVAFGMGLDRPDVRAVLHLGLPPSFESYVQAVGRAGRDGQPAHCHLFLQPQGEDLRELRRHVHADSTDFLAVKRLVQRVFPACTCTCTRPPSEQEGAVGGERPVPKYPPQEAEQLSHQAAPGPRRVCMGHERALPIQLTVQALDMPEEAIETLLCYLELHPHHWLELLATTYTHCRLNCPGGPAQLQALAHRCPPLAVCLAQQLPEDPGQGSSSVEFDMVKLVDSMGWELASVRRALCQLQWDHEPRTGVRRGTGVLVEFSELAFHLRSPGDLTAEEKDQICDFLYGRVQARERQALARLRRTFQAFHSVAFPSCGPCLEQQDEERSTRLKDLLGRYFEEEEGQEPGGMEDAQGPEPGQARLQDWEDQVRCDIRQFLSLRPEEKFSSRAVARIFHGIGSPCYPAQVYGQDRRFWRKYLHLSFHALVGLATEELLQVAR
UniProt Q13129: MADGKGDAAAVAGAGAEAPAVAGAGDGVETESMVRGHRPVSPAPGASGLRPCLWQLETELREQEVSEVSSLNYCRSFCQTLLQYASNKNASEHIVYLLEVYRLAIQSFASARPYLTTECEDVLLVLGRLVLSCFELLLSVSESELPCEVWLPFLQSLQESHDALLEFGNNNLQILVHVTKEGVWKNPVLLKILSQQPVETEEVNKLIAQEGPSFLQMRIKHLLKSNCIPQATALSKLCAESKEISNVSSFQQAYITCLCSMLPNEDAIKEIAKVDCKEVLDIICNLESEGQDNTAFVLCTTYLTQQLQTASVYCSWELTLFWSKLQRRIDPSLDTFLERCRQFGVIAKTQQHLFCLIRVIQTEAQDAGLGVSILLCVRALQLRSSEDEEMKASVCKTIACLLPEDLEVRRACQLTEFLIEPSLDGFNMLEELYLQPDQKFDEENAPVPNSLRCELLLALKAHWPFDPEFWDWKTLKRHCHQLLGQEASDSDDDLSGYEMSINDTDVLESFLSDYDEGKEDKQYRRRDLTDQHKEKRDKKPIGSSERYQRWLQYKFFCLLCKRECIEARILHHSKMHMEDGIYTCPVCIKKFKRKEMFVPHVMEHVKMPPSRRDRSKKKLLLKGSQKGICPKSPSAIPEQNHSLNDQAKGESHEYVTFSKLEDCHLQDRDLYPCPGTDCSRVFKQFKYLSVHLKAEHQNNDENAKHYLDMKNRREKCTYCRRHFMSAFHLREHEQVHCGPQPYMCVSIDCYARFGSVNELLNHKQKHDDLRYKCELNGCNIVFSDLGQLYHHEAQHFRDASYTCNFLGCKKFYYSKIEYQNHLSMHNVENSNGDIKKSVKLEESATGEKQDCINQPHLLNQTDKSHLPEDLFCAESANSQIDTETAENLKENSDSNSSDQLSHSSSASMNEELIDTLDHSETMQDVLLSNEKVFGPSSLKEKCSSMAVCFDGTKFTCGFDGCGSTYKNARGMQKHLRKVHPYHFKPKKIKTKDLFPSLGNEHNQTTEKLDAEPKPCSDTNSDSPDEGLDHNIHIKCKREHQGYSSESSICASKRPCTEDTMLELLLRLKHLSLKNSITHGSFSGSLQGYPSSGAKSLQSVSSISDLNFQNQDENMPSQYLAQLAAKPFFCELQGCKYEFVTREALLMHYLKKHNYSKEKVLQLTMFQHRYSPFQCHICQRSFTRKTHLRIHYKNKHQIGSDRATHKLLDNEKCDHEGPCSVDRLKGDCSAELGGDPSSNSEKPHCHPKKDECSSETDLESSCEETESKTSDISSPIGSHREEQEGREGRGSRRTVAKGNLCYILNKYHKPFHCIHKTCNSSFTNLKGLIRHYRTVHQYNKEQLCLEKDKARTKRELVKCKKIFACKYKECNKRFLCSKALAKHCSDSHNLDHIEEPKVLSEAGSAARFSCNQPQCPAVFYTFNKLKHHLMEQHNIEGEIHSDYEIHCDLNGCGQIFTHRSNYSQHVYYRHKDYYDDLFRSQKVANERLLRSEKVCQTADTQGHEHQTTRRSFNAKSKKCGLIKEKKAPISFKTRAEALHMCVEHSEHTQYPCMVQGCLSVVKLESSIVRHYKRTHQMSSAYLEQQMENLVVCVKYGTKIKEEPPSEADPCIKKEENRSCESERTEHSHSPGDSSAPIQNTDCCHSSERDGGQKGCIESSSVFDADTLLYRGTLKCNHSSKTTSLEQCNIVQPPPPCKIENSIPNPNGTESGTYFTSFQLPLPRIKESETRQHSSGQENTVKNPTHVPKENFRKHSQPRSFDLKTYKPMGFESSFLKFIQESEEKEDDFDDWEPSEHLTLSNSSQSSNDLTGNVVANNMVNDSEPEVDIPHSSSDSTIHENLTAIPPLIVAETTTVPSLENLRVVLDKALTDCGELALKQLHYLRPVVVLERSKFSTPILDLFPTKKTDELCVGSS
UniProt P35249, whole entry, looked up: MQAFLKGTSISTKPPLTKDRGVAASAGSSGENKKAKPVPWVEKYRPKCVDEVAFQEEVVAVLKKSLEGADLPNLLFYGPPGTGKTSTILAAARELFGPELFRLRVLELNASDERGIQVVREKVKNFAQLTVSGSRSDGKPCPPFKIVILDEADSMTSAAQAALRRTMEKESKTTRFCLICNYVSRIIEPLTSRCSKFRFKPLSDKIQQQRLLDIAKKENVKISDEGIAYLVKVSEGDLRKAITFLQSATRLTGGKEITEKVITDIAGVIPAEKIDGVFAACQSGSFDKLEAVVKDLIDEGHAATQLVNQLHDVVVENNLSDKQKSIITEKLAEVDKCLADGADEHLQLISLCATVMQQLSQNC
UniProt O00584, whole entry, looked up: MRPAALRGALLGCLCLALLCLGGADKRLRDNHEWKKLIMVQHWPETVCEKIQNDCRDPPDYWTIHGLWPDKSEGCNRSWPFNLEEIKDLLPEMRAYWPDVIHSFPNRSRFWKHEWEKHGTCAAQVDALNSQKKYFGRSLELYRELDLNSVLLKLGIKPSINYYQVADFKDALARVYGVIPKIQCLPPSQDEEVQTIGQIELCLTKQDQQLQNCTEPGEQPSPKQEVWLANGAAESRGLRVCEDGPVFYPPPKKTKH
UniProt O14730: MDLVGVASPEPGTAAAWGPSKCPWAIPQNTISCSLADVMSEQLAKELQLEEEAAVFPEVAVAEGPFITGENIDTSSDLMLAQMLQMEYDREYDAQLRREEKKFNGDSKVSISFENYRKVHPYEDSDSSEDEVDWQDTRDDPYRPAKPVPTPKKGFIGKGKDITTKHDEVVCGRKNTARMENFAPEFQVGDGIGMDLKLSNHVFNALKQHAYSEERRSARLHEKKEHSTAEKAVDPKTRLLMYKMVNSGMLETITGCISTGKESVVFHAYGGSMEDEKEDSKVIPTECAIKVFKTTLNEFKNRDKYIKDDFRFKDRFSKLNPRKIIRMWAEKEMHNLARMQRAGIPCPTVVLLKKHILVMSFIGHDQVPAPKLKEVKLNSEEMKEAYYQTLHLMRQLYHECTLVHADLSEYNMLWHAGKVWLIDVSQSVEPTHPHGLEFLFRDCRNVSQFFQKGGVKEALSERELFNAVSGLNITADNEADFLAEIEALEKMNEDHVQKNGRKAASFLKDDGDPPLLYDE
UniProt Q9Y3B8: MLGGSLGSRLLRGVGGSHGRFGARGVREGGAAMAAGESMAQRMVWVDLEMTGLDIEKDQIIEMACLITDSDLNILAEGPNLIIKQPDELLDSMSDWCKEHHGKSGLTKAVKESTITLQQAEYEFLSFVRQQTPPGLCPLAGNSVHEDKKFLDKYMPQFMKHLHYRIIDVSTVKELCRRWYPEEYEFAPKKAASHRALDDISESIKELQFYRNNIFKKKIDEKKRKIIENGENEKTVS
UniProt Q6R327, whole entry, looked up: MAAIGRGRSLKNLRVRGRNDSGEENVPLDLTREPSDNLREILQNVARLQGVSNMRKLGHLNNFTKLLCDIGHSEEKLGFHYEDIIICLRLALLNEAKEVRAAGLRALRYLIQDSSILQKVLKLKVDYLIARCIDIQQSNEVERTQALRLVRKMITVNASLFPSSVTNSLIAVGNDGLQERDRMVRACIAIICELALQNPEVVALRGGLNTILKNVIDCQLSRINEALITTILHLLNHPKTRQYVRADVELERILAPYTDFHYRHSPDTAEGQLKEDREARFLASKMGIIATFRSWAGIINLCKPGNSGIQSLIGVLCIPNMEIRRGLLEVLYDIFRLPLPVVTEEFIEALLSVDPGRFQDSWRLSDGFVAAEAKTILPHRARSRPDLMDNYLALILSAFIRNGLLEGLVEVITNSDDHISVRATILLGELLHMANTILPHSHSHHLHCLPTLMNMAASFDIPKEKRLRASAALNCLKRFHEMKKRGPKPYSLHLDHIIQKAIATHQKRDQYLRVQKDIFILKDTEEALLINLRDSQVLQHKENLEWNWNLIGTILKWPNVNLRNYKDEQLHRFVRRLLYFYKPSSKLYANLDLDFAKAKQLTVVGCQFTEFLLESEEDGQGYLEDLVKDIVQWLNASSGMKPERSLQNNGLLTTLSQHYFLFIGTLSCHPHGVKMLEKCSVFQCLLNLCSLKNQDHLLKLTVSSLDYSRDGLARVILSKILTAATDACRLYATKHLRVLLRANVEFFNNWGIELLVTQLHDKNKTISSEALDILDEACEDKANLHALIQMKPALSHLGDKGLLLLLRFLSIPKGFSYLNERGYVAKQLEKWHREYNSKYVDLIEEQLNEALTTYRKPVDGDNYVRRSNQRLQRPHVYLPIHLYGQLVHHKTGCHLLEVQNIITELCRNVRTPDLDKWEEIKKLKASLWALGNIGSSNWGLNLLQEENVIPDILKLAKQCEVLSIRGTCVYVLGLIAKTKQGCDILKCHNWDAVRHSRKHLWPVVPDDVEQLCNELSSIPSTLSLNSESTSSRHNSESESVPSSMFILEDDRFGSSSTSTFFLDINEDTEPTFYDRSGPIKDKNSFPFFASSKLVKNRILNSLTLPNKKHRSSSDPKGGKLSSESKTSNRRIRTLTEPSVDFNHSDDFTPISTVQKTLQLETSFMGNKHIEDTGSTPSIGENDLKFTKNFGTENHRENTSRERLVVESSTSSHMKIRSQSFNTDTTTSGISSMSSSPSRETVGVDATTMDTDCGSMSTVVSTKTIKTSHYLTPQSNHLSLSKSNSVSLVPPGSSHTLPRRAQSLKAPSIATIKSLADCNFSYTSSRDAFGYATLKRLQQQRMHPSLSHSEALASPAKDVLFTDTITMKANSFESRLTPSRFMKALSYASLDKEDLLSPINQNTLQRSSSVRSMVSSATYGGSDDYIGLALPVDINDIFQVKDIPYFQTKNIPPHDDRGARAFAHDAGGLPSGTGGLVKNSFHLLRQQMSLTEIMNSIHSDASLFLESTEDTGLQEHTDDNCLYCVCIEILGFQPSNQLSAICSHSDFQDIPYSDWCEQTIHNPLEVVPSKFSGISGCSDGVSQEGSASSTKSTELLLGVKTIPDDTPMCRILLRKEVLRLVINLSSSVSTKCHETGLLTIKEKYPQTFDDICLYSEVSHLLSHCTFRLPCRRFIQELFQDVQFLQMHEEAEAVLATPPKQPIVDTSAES

Compound: Cc1cc(ccc1-c1ccccc1)C(=O)N1CCCN(CC1)C(=O)CCl [compound 10]
Experiment: probe-labelled cysteine peptide fold change vs DMSO (competition) (log2 fold change); higher = less target engagement (more negative = stronger competition)
Conditions: THP-1, incubation time: 4 h
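Note: competitive profiling in live THP-1 cells: cysteine peptides tagged with an iodoacetamide desthiobiotin (IA-DTB) probe, intensity after compound treatment relative to DMSO-treated cells.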

| Target | probe-labelled cysteine peptide fold change (10 µM) | probe-labelled cysteine peptide fold change (50 µM) |
| --- | --- | --- |
| RNF114_Q9Y508_32_FTCPVCLEVYEK (UniProt Q9Y508) | -0.0142 | -0.158 |
| RNASE2_P10153_138_YAQTPANMFYIVACDNRDQR (UniProt P10153) | -0.465 | -0.74 |
| RFC3_P40938_164+165_LILCCNSTSK (UniProt P40938) | 0.0986 | -0.466 |
| RNF14_Q9UBS8_350_LTYHGVSPCK (UniProt Q9UBS8) | -0.0421 | -0.206 |
| RECQL4_O94761_897_VCMGHER (UniProt O94761) | -0.115 | -0.0657 |
| REPIN1_Q9BWE0_520_IHTGERPYACPDCDR (UniProt Q9BWE0) | 0.0967 | 0.105 |
| RECQL_P46063_321_GQSGIIYCFSQK (UniProt P46063) | 0.109 | 0.149 |
| RHOT2_Q8IXI1_216_SCFGHPLAPQALEDVK (UniProt Q8IXI1) | -0.111 | -0.195 |
| REL_Q04864_208_GGDEIFLLCDK (UniProt Q04864) | 0.136 | -0.0608 |
| RINL_Q6ZS11_350_KDEDPGPALETAVCQAVLAPLKPALWTR (UniProt Q6ZS11) | -0.282 | -0.375 |
| REXO4_Q9GZR2_382_ILGLQVQQAEHCSIQDAQAAMR (UniProt Q9GZR2) | -0.131 | -0.51 |
| RNF138_Q8WVD3_192_LLDHCNSNHLFQIVPVTCPICVSLPWGDPSQITR (UniProt Q8WVD3) | 0.121 | 0.0983 |
| RGS14_O43566_183_ECLLAEAEGR (UniProt O43566) | -0.0353 | 0.16 |
| RENBP_P51606_135_TIFSECFYTMAMNELWR (UniProt P51606) | 0.185 | -0.158 |
| RFWD3_Q6PCD5_379_QAELESAQCR (UniProt Q6PCD5) | -0.0752 | -0.305 |
| RFC2_P35250_255_VCDEPHPLLVK (UniProt P35250) | 0.122 | 0.113 |
| RLF_Q13129_1591_THQMSSAYLEQQMENLVVCVK (UniProt Q13129) | 0.112 | -0.17 |
| RLF_Q13129_1015_LDAEPKPCSDTNSDSPDEGLDHNIHIK (UniProt Q13129) | -0.233 | -0.173 |
| RFC4_P35249_48_CVDEVAFQEEVVAVLKK (UniProt P35249) | -0.116 | -0.637 |
| RECQL_P46063_471_RVLMAQHFDEVWNSEACNK (UniProt P46063) | 0.0107 | -0.0354 |
| RING1_Q06587_51_SLHSELMCPICLDMLK (UniProt Q06587) | 0.153 | -0.247 |
| REPS1_Q96D71_56_AAQLPNDVVLQIMELCGATR (UniProt Q96D71) | 0.018 | -0.081 |

| Target | probe-labelled cysteine peptide fold change (10 µM) | probe-labelled cysteine peptide fold change (50 µM) |
| --- | --- | --- |
| RHOC_P08134_159_ISAFGYLECSAK (UniProt P08134) | -0.0252 | 0.0731 |
| RIN1_Q13671_623_LPATHCFQHLLR (UniProt Q13671) | -0.151 | -0.687 |
| RNASET2_O00584_121_HGTCAAQVDALNSQK (UniProt O00584) | 0.114 | 0.00208 |
| RLF_Q13129_400_TIACLLPEDLEVRR (UniProt Q13129) | -0.0742 | -0.58 |
| RIOK3_O14730_400_QLYHECTLVHADLSEYNMLWHAGK (UniProt O14730) | 0.101 | -0.261 |
| RMDN1_Q96DB5_170_WYAICLSDVGDYEGIK (UniProt Q96DB5) | 0.371 | 0.484 |
| RIOK2_Q9BVS4_449_VQGGVPAGSDEYEDECPHLIALSSLNR (UniProt Q9BVS4) | -0.361 | -0.501 |
| RMND5A_Q9H871_328_CWYHSIFACPILR (UniProt Q9H871) | -0.0113 | 0.227 |
| RLF_Q13129_1383_HCSDSHNLDHIEEPK (UniProt Q13129) | 0.118 | -0.251 |
| REXO2_Q9Y3B8_137_QQTPPGLCPLAGNSVHEDK (UniProt Q9Y3B8) | 0.2 | 0.262 |
| RNASEH2A_O75792_29_KEPCVLGVDEAGR (UniProt O75792) | -0.0277 | 0.0399 |
| RIF1_Q5UIP0_312_SLIDNFALNPDILCSAK (UniProt Q5UIP0) | -0.213 | 0.312 |
| RIPOR1_Q6ZS17_945_VLEAVCEFSR (UniProt Q6ZS17) | 0.247 | 0.132 |
| RECQL_P46063_414_ADCILYYGFGDIFR (UniProt P46063) | 0.295 | 0.455 |
| RIPK2_O43353_455_REDIVNQMTEACLNQSLDALLSR (UniProt O43353) | 0.477 | 0.0379 |
| RECQL_P46063_471_VLMAQHFDEVWNSEACNK (UniProt P46063) | 0.0916 | 0.0746 |
| RNF14_Q9UBS8_270_CPSVATPGQVK (UniProt Q9UBS8) | -0.197 | -0.397 |
| RNF138_Q8WVD3_54_ESGAHCPLCR (UniProt Q8WVD3) | -0.133 | -0.0788 |
| RIOK2_Q9BVS4_197_HAVVMELINGYPLCQIHHVEDPASVYDEAMELIVK (UniProt Q9BVS4) | 0.344 | 0.282 |
| RIF1_Q5UIP0_1692_DSFDNCSLGESSK (UniProt Q5UIP0) | -0.291 | -0.341 |
| RIF1_Q5UIP0_731_CAALVATAEENLCCEELSSK (UniProt Q5UIP0) | -0.398 | -0.0693 |
| RNF121_Q9H920_251_LSCNHVFHEFCIR (UniProt Q9H920) | 0.00159 | -0.0297 |

| Target | probe-labelled cysteine peptide fold change (10 µM) | probe-labelled cysteine peptide fold change (50 µM) |
| --- | --- | --- |
| REXO2_Q9Y3B8_137_QQTPPGLCPLAGNSVHEDKK (UniProt Q9Y3B8) | -0.0798 | -0.145 |
| RICTOR_Q6R327_906_TGCHLLEVQNIITELCR (UniProt Q6R327) | 0.0688 | -0.0251 |
| RFFL_Q8WZ73_123_DYLSLHDISTEMCR (UniProt Q8WZ73) | 0.111 | 0.18 |
| RNF114_Q9Y508_64_KPVCGVCR (UniProt Q9Y508) | 0.0642 | -0.0371 |
| RECQL5_O94762_977_CESEADWHGLCGPQR (UniProt O94762) | 0.223 | -0.0322 |
| RLF_Q13129_851_QDCINQPHLLNQTDK (UniProt Q13129) | -0.353 | -0.26 |
| RNASEH1_O60930_191_AEIHAACK (UniProt O60930) | -0.0799 | -0.155 |
| RHOT1_Q8IXI2_322_HDLDRDCALSPDELK (UniProt Q8IXI2) | 0.133 | 0.421 |
| RIPOR1_Q6ZS17_1191_QSLQQCGEEGQSAHR (UniProt Q6ZS17) | -0.0372 | 0.0543 |
| RELA_Q04206_160_LCFQVTVR (UniProt Q04206) | 0.0978 | -0.176 |
| RIC1_Q4ADV7_904_FITEFPLFLQTVVHCAR (UniProt Q4ADV7) | 0.154 | 0.146 |
| RFT1_Q96AA3_70_ACLSGGTQR (UniProt Q96AA3) | 0.351 | -0.13 |
| RNF14_Q9UBS8_265_DGQVQCLNCPEPK (UniProt Q9UBS8) | 0.137 | -0.219 |
| RFT1_Q96AA3_448_ITQSLCFIHR (UniProt Q96AA3) | -0.704 | -0.836 |
| RECQL_P46063_49_QCLEDSDAGASNEYDSSPAAWNK (UniProt P46063) | -0.0254 | -0.0635 |
| RETSAT_Q6NUM9_370_CLPGVK (UniProt Q6NUM9) | -0.221 | -0.603 |
| RNF123_Q5XPI4_1277_ACINQHLMNNK (UniProt Q5XPI4) | -0.0494 | -0.231 |
| RIPK2_O43353_286_CLIELEPVLR (UniProt O43353) | 0.245 | 0.0863 |
| RNF113A_O15541_285_HYFCESCALQHFR (UniProt O15541) | 0.151 | 0.0395 |
| RFC1_P35251_916_AADSICDGDLVDSQIR (UniProt P35251) | -0.128 | 0.204 |
| REEP5_Q00765_18_NCMTDLLAK (UniProt Q00765) | -0.872 | -1.97 |
| RLF_Q13129_453_CELLLALK (UniProt Q13129) | -0.0396 | -0.333 |

| Target | probe-labelled cysteine peptide fold change (10 µM) | probe-labelled cysteine peptide fold change (50 µM) |
| --- | --- | --- |
| RNF126_Q9BV68_32_CESGFIEELPEETR (UniProt Q9BV68) | -0.123 | -0.378 |
| RNASET2_O00584_241_VCEDGPVFYPPPK (UniProt O00584) | -0.342 | 0.112 |
| RFTN1_Q14699_527_GPVQEDKGEQLSPGGLLCGVGVEGEAVQNGPASHSR (UniProt Q14699) | -0.144 | -0.0344 |
| REST_Q13127_402_CNLQYHFK (UniProt Q13127) | -0.115 | 0.0335 |
| RFC5_P40937_73_TSTILACAK (UniProt P40937) | -0.049 | 0.0665 |
| RNASET2_O00584_55_IQNDCRDPPDYWTIHGLWPDK (UniProt O00584) | -0.0979 | -0.209 |
| RNF146_Q9NTX7_57_HVFCYLCVK (UniProt Q9NTX7) | -0.00468 | -0.239 |
| RICTOR_Q6R327_778_TISSEALDILDEACEDK (UniProt Q6R327) | -0.0713 | 0.324 |
| RECQL4_O94761_749_TTAEAYHAGMCSR (UniProt O94761) | -0.19 | -0.86 |
| RIPK1_Q13546_256_SGNRPDVDDITEYCPR (UniProt Q13546) | -0.0669 | -0.123 |
| RFC4_P35249_48_CVDEVAFQEEVVAVLK (UniProt P35249) | 0.000266 | 0.579 |
| RHOT2_Q8IXI1_185_QLRPACAQALTR (UniProt Q8IXI1) | -0.151 | 0.0492 |
| RFC3_P40938_285_LYELLTHCIPPEIIMK (UniProt P40938) | 0.143 | -0.0545 |
| RLF_Q13129_557_FFCLLCK (UniProt Q13129) | -0.322 | -0.255 |
| RMND5A_Q9H871_354_LVCGHIISR (UniProt Q9H871) | -0.0314 | -0.213 |
| RIOK3_O14730_346_AGIPCPTVVLLK (UniProt O14730) | 0.0924 | -0.0839 |
| RECQL_P46063_223+224_IAVDEVHCCSQWGHDFRPDYK (UniProt P46063) | -0.137 | -0.426 |
| RFWD3_Q6PCD5_638_MDFSHWPHVLPLEPGGCIDFQTENSSR (UniProt Q6PCD5) | -0.0759 | 0.222 |
| RIPOR1_Q6ZS17_289_GLANHVVVGSVSCETK (UniProt Q6ZS17) | -0.0436 | 0.0415 |
